Patent US20170088584A1, “USE OF […] DRUGS FOR OS[…] AND BONE REGENERATION” (UNIVERSIDAD NACIONAL AUTONOMA DE MEXICO, priority 2015, published 2017)

Experiment: hydroxyapatite crystal induction in a cell-free system in metasilicate gels (SEM, EDS)
Conditions: 20 μg/mL in sodium metasilicate gel, 7 days at 37° C.

MGTSSTDSQQAQHRRCSTSN
Ca/P ratio of the crystals formed (EDS): 1.7 | hydroxyapatite crystal formation (microscopy): hydroxyapatite crystals induced
